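Primary screen of methionyl-tRNA synthetase; the read-out is not stated. Target: Methionyl-tRNA synthetase (putative), Leishmania donovani (UniProt E9BF75). The test concentration is not given. Values are per cent inhibition. About 68,000 compounds were tested under these conditions; 0.035% (about 24) showed 50% or more at least once.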

By UniProt entry, the sequences of proteins in these tests, tags left out.
UniProt E9BF75, entry or part of it: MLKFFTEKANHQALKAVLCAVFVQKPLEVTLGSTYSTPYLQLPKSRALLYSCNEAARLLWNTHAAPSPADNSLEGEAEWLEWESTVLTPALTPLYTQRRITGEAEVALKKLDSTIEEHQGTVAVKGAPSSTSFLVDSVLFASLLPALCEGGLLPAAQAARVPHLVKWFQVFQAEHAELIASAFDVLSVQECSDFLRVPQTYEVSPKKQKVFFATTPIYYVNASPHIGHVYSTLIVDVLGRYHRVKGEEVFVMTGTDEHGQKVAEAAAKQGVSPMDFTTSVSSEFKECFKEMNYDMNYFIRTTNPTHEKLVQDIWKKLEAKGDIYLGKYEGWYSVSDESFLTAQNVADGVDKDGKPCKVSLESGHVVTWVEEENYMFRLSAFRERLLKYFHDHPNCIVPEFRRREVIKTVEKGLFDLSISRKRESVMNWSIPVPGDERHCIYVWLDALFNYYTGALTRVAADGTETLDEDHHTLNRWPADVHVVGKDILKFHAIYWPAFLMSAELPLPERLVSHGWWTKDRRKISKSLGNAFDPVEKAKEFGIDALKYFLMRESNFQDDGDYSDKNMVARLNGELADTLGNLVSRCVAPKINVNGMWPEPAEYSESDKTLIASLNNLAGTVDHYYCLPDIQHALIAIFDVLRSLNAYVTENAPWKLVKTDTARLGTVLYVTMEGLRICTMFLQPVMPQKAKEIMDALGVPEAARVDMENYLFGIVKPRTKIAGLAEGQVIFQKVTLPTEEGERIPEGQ

Results are percentages, as filed.
The record does not define 0% and 100%; most values in the screen are far below 50% and negative numbers occur (in some assays of this library far below -100).
Compounds were drawn at random from those tested, without regard to their results.

| # | Compound | inhibition |
|---|---|---|
| 1 | `CCn1cc(S(=O)(=O)N2CCCCCC2c2cc(C)on2)cn1` (configuration not stated) | 11.75% |
| 2 | `CCS(=O)(=O)N1CCc2c(CN(C)Cc3ccco3)cncc2C1` | 15.48% |
| 3 | `CC(C)Cc1cc(C(=O)NC(C)C)[nH]n1` | 16.34% |
| 4 | `Cc1ccc(NC2CCN(C(=O)COC3CCCCC3)CC2)nn1` | 5.128% |
| 5 | `Cc1nc(N2CCCN(c3ncccn3)CC2)c2cnn(C)c2n1` | 10.23% |
| 6 | `Cc1ccc(C)c(C(C)NC(=O)N2CCC(n3cncn3)CC2)c1` (configuration not stated) | 7.263% |
| 7 | `COc1c(CNCCNC(=O)c2ccc(C)cc2)c(C(C)C)nn1C` | 20.67% |
| 8 | `COc1cccc(COCC(=O)N2CCCC(c3ccn[nH]3)C2)c1` (configuration not stated) | 8.282% |
| 9 | `CN(C)CCNCCC(Cc1ccccc1)C1CCOC(C)(C)C1` (configuration not stated) | 16.17% |
| 10 | `CN(Cc1ccccc1)S(=O)(=O)N1C[C@H](C2CC2)[C@@H](N)C1` | 5.367% |
| 11 | `COc1ccc(C(=O)N(CCO)Cc2ccccc2)c(OC)n1` | -1.944% |
| 12 | `O=C1CCCCN1CCCNCc1cnc(C2CCC2)s1` | 10.64% |
| 13 | `CS(=O)(=O)N[C@@H]1CN(Cc2ccccc2)C[C@@H]2CCCO[C@@H]21` | 17.78% |
| 14 | `Cc1ccc(C(=O)N2CCC(Oc3ccc(C)c(C)c3)CC2)c(=O)[nH]1` | 15.85% |
| 15 | `Cc1ccccc1C1CCCN(C(=O)c2c[nH]c(=O)c(Cl)c2)C1` (configuration not stated) | 15.66% |
| 16 | `Cc1nc(CN2CCC(CNC(=O)C3(C#N)CCCC3)CC2)oc1C` | 12.81% |
| 17 | `Cc1nc(CN(C)Cc2nc(-c3sccc3C)oc2C)no1` | 10.61% |
| 18 | `O=C(C(CNCc1ccccn1)c1ccccc1)N1CCOCC1` (configuration not stated) | 6.812% |
| 19 | `CCC1=N[C@@]2(CC[C@@H]3CN(S(=O)(=O)CC(C)C)C[C@@H]32)C(=O)N1CC1CC1` | 15.6% |
| 20 | `CC(C)NC(=O)N[C@H]1C[C@@H](Cc2cc(CN3CCOCC3)on2)C1(C)C` | 11.4% |
| 21 | `Fc1ccc(-c2cnc(CN3CCOC(Cn4cccn4)C3)o2)cc1` (configuration not stated) | 9.639% |
| 22 | `CCn1ccnc1CN1CCN(C(C)C(=O)N2CCCC2)CC1` (configuration not stated) | 11.45% |
| 23 | `CN(C)C1CCCN(C(=O)NCCNC(=O)C2CCCCC2)C1` (configuration not stated) | 5.955% |
| 24 | `CN1CCN(Cc2ccc(F)cc2)Cc2cccnc21` | 10% |
| 25 | `CCn1c(C2CCCN(C(=O)C(C)(C)OC)C2)nn(CCN(C)C)c1=O` (configuration not stated) | 18.73% |
| 26 | `CCCn1ncc(C(=O)NCc2n[nH]c3c2CCCCC3)c1C` | 8.04% |
| 27 | `CC(=O)Nc1nc(C2CCN(C(=O)c3cncs3)CC2)cs1` | 8.475% |
| 28 | `CC(C)C1C(=O)NCCN1C(=O)CCCc1nc(C(C)(C)C)no1` (configuration not stated) | 17.22% |
| 29 | `Cc1cc(C)n(CC2CN(Cc3nnsc3Cl)CCO2)n1` (configuration not stated) | 18.37% |
| 30 | `OC[C@@H](O)CN(CCC(F)(F)F)c1ncc(Cl)cn1` | 11.88% |
| 31 | `Cc1ccc(C)c(C(O)Cn2cc(Cl)c(=O)[nH]c2=O)c1` (configuration not stated) | 0.2786% |
| 32 | `CCc1csc(NC(=O)Nc2c(C)n[nH]c2C)n1` | 13.69% |
| 33 | `O=c1[nH]c(-c2ccncc2)ncc1-c1ccnc(NC2CCCCC2)n1` | 0.2427% |
| 34 | `N#Cc1cc2c(=O)n(CC(O)c3cccc(O)c3)ccc2[nH]c1=O` (configuration not stated) | 13.33% |
| 35 | `COc1ccccc1C(=O)N1CCC(O)(c2cccc(C)c2C)CC1` | -1.742% |
| 36 | `CCn1cnnc1CCNC(=O)c1ccc(Br)cc1F` | 15.5% |
| 37 | `CC(C)c1nc(CCN(C)c2nccc(N3CCCC(O)C3)n2)no1` (configuration not stated) | 17.49% |
| 38 | `CCOC(=O)CSc1nnc([C@@H](N)C(C)CC)o1` (some centres not stated) | 16.17% |
| 39 | `CNC(=O)Cc1noc(Cc2ccc3c(c2)CCCC3)n1` | 2.821% |
| 40 | `COC(=O)CC1CCCCN1CC(=O)Nc1cc(F)ccc1F` (configuration not stated) | 17.14% |
| 41 | `Cc1ncsc1C(=O)N1CCC(c2ncncc2-c2ccnc(N)c2)C1` (configuration not stated) | 11.55% |
| 42 | `CCOCc1ccccc1NC(=O)NC1CCN(c2ccccc2)C1` (configuration not stated) | 8.462% |
| 43 | `Cc1cccc(CN2C[C@@H]3CCCO[C@@H]3[C@H](NS(C)(=O)=O)C2)n1` | 14.64% |
| 44 | `O=C(c1ccc2c(c1)OCCCO2)N1CCCC(n2ccnc2)C1` (configuration not stated) | 16.33% |
| 45 | `O=C1[C@@H]2CCN(Cc3ccc(F)cc3)C[C@@H]2OCCN1c1cccnc1` | 13.59% |
| 46 | `CN(C)CC(=O)N1CCC2(CC1)CN(Cc1cccnc1)C(=O)CO2` | 5.449% |
| 47 | `Cc1ccc(-n2cnnn2)cc1NCC(=O)Nc1ccccc1Cl` | 10.78% |
| 48 | `O=C(CN1CCN(C(=O)c2sccc2C2CC2)CC1)NC1CC1` | 3.725% |
| 49 | `O=C(c1cc[nH]n1)N1CCc2cc(Br)sc2C1` | 1.083% |
| 50 | `Cc1nc2cc(=O)[nH]n2c(C)c1CC(=O)Nc1cnn(C(C)(C)C)c1` | 11.18% |
| 51 | `CC(C)(C)n1ncc2c1NC(=O)CC2c1cccs1` (configuration not stated) | 11.63% |
| 52 | `COCc1cc(NCc2cc(F)ccc2F)n2nccc2n1` | 11.33% |
| 53 | `CCCNC(=O)c1ccc(S(=O)(=O)NC2(COC)CCCC2)cc1` | 13.35% |
| 54 | `CCC(C(=O)NCc1nc(C)cc(C(F)(F)F)n1)n1cccn1` (configuration not stated) | 17.78% |
| 55 | `CNC(=O)c1cc(C)nc(C2(C)CCCN2c2cc(C)ncn2)n1` (configuration not stated) | 12.73% |
| 56 | `Cc1cc(C)n(CC2CCCN2C(=O)c2cnccn2)n1` (configuration not stated) | 7.977% |
| 57 | `Cc1ncoc1C(=O)N1CC[C@@H](O)[C@@H](O)[C@H](N2CCC(F)(F)CC2)C1` | 16.38% |
| 58 | `O=C(NC1CCN(CC2CCCC2)C1)N1CCC(OCC2CC2)CC1` (configuration not stated) | 20.82% |
| 59 | `CN(C)CC(O)Cn1cc(NCc2ccc(Br)cc2)cn1` (configuration not stated) | 18.41% |
| 60 | `CCC(CCNC(=O)c1cc(C2CC2)nc2c1cnn2C)n1cccn1` (configuration not stated) | 5.036% |
| 61 | `CCn1ccc(NC(=O)CN2C(=O)CC(C)(C)c3ccccc32)n1` | 19.89% |
| 62 | `N#Cc1ccc(F)c(CNC(=O)NC(CO)c2ccccc2)c1` (configuration not stated) | 2.326% |
| 63 | `CS(=O)(=O)c1ccc(CC(=O)N2CCN3CCNC(=O)C3C2)cc1` (configuration not stated) | 16.11% |
| 64 | `CCN(CC)S(=O)(=O)c1ccc(C(=O)NC(C)(C)C)cc1` | 0.5222% |
| 65 | `O=C(c1cc(Cl)c2c(c1)OCCO2)N1CCCC(n2cncn2)C1` (configuration not stated) | 6.993% |
| 66 | `Cc1ccc(NCCCNC(=O)C2CC3(CCNCC3)CN2C)nc1` (configuration not stated) | 7.904% |
| 67 | `CN(C)Cc1nnc(C2CCN(c3nccc(N)n3)CC2)n1C1CC1` | 14.16% |
| 68 | `N#Cc1c(Cl)nsc1N1CCN(CC2CC2)CC1` | 13.66% |
| 69 | `Cn1cc(C(=O)CC2CCCN2C(=O)c2cncc3ccccc23)cn1` (configuration not stated) | 18.75% |
| 70 | `Cc1ccc(CNC(=O)NCCCO)cc1` | 11.17% |
| 71 | `COc1nccnc1-c1cc(NC2CCCC2)nc2[nH]ccc12` | 7.117% |

For reference, 8 entries once more:

Compound,inhibition
Cc1ccc(-n2cnnn2)cc1NCC(=O)Nc1ccccc1Cl,10.78%
CS(=O)(=O)N[C@@H]1CN(Cc2ccccc2)C[C@@H]2CCCO[C@@H]21,17.78%
CCn1ccc(NC(=O)CN2C(=O)CC(C)(C)c3ccccc32)n1,19.89%
CC(C)C1C(=O)NCCN1C(=O)CCCc1nc(C(C)(C)C)no1 (configuration not stated),17.22%
CC(C)Cc1cc(C(=O)NC(C)C)[nH]n1,16.34%
Cc1ccc(NC2CCN(C(=O)COC3CCCCC3)CC2)nn1,5.128%
Cc1cc(C)n(CC2CN(Cc3nnsc3Cl)CCO2)n1 (configuration not stated),18.37%
N#Cc1cc2c(=O)n(CC(O)c3cccc(O)c3)ccc2[nH]c1=O (configuration not stated),13.33%

From ChEMBL document CHEMBL3988442, “University of Dundee, Small-Polar-MMV Screening Library” (2021).